In article PMC6326798:
These are yes or no findings as the source states them, for the method shown. Binding seen in cells or lysates may run through a third protein. Some entries that bind do so weakly or less than the wild type.

Sequences of proteins named here, by UniProt entry; tags and fusion partners are left off. A change or cut given only in a name is not applied to a line headed by its entry.
UniProt Q9H3R5: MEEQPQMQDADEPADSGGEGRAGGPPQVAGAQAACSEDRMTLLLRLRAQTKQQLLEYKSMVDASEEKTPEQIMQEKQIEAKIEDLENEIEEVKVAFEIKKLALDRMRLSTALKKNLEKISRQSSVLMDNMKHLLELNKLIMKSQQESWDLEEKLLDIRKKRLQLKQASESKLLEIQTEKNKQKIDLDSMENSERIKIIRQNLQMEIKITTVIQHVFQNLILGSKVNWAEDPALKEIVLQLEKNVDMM
UniProt Q92674: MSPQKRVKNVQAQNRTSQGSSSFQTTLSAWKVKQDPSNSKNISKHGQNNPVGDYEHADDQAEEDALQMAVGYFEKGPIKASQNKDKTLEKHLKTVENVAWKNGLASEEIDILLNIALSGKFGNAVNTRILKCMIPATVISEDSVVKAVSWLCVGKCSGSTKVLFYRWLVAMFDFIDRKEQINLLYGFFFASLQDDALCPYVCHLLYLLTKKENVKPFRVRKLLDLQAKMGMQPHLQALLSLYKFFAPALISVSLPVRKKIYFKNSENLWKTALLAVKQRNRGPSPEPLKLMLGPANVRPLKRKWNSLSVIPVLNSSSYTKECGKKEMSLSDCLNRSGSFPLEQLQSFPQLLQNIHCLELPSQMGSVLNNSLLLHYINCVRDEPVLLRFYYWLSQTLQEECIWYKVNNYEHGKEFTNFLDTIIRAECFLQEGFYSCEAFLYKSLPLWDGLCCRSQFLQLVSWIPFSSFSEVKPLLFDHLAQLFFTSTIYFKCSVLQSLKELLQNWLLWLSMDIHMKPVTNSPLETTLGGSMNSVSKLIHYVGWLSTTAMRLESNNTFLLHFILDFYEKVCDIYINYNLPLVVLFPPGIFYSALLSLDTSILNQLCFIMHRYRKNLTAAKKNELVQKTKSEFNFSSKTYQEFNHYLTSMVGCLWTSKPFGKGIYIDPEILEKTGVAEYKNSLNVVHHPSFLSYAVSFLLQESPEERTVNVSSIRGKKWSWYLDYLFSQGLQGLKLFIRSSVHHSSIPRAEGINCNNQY

Experiments:
[1] = biological target: GFP-hsCENP-H K234E/L238A (human) (UniProt Q9H3R5); test: co-IP; HeLa Tet-On cells co-transfected with GFP-hsCENP-H (WT or mutants), non-tagged hsCENP-K and MYC-hsCENP-I; anti-GFP antibody beads; lysis buffer with 75 mM NaCl, 0.1% NP-40 and Turbo-nuclease; immunoblot
GFP-hsCENP-H WT (human) = GFP-hsCENP-H WT (human) (UniProt Q9H3R5); test: as above

Question: “MYC-hsCENP-I (from UniProt Q92674 1-756)” was tested. Which binding [1] did it give?
Answer: binds

Question: And the binding (GFP-hsCENP-H WT (human))?
Answer: binds
